Drawing on US20220025055A1 (Boehringer Ingelheim, published 2022), this text covers binding for 1 molecule.

Results are given in words; binding and its absence hold for the method and conditions named. Some entries that bind do so weakly or less than the wild type.

Test [1] concerns the target cynomolgus FLT3 (cynomolgus). In words: restated in Example 7; assay not named.
Test [2] deals with cynomolgus FLT3 (cynomolgus). In words: flow cytometry on FLT3-expressing cells. In general terms: Flow cytometry measures light scatter and fluorescence of single cells or particles in a stream.

B1: NB1113 (antibody, V domains shown)
VH: EVQLLESGGGLVQPGGSLRLSCAPSGFTFSNYGMAWVRQAPGKGLEWVSSIHSGGGDTYYRDSVKGRFTISRDNSKNTLYLQMNSLRAEDTAVYYCARGRTPTGYYFDHWGQGTMVTVSS
VL: DIQMTQSPSSLSASVGDRVTITCRASEGIHSGLAWYQQKPGKVPKLLIYNANSLHSGVPSRFSGSGSGTDFTLTISSLQPEDVATYFCQQYYDYPLTFGQGTKLEIK
notes: Light chain variant (N31S in CDR-L1) of humanized NB1063 (VH1 x VL1); The constant regions are not restated for the humanized antibodies; the parent chimera NB1016 is human IgG4PAA (S228P, F234A, L235A) / human kappa; also called NB11113; N31S light chain variant of NB1063
As for B1, the binding result in test [1] and in test [2] was “binds” each time.
